Assay results: the supplement of paper PMC10032668
Some of the results follow. Only hits are listed; about a third recur on repeated control peptides.

Amino acid sequences for entries named in this document (tags omitted).
TPX2, Q9ULW0, UniProt Q9ULW0, whole entry: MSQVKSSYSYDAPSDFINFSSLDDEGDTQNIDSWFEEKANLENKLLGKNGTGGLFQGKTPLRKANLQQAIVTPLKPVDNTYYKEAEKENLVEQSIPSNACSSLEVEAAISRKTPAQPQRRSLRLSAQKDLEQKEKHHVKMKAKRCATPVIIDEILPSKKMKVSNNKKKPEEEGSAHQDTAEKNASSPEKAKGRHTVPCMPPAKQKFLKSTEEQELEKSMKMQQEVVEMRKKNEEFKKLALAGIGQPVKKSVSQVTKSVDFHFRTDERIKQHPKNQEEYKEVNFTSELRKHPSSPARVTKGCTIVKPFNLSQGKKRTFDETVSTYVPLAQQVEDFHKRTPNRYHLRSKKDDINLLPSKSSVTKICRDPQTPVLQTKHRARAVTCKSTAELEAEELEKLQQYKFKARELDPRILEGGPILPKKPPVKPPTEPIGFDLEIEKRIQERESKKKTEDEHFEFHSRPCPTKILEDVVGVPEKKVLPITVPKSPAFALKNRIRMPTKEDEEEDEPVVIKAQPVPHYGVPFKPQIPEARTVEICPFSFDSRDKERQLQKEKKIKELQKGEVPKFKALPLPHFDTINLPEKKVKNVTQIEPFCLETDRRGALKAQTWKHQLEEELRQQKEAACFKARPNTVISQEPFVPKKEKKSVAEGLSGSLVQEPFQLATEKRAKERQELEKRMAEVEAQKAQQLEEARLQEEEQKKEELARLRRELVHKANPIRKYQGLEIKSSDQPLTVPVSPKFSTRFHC

Columns and labels:
Test in all cases: PRISMA enrichment of interactor (LFQ) in peptide spot vs all other peptide spots (log2 fold change); higher = stronger / more specific binding of the interactor to the peptide
[1] = molecular target: AKAP8L, Q9ULX6
Description: (§1)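 PRISMA: 15-aa overlapping tiles (offset 8 aa) of 60 microproteins, plus SOS1/GLUT1 control peptides, were spot-synthesized on cellulose membranes in triplicate. Membranes were incubated with benzonase-treated HEK293T lysate, and bound proteins were identified by LC-MS/MS with LFQ. Enrichment is the log2 fold change of each protein in one spot versus all other spots. Only interactors passing the significance cutoff are listed.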

[2] = molecular target: CTNNA1, P35221
Description: as §1

[3] = molecular target: DBR1, Q9UK59
Description: as §1

[4] = molecular target: FKBP1A, P62942
Description: as §1

[5] = molecular target: FLOT2, Q14254
Description: as §1

[6] = molecular target: NDUFB7, P17568
Description: as §1

[7] = molecular target: NUP153, P49790
Description: as §1

[8] = molecular target: PAF1, Q8N7H5
Description: as §1

[9] = molecular target: PDCD11, Q14690
Description: as §1

[10] = molecular target: PFKL, P17858
Description: as §1

[11] = molecular target: PUM2, Q8TB72
Description: as §1

[12] = molecular target: SPTY2D1, Q68D10
Description: as §1

[13] = molecular target: TCEA1, P23193
Description: as §1

[14] = molecular target: UBXN1, Q04323
Description: as §1

[15] = molecular target: BCAP31, P51572
Description: as §1

[16] = molecular target: CENPV, Q7Z7K6
Description: as §1

[17] = molecular target: CEP290, O15078
Description: as §1

[18] = molecular target: DDX1, Q92499
Description: as §1

[19] = molecular target: DHX30, Q7L2E3
Description: as §1

[20] = molecular target: EARS2, Q5JPH6
Description: as §1

[21] = molecular target: ECI2, O75521
Description: as §1

[22] = molecular target: EIF2S1, P05198
Description: as §1

[23] = molecular target: EP300, Q09472
Description: as §1

[24] = molecular target: FBXO3, Q9UK99
Description: as §1

[25] = molecular target: MPP1, Q00013
Description: as §1

[26] = molecular target: MRPS35, P82673
Description: as §1

[27] = molecular target: NDUFS7, O75251
Description: as §1

[28] = molecular target: NF1, P21359
Description: as §1

[29] = molecular target: NKAP, Q8N5F7
Description: as §1

[30] = molecular target: NUP160, Q12769
Description: as §1

[31] = substrate: PC, P11498
Description: as §1

[32] = molecular target: PSMA3, P25788
Description: as §1

[33] = molecular target: PSMC6, P62333
Description: as §1

[34] = molecular target: PTRH2, Q9Y3E5
Description: as §1

[35] = molecular target: PWP1, Q13610
Description: as §1

[36] = molecular target: ROCK1, Q13464
Description: as §1

[37] = substrate: SON, P18583
Description: as §1

[38] = molecular target: SRRM2, Q9UQ35
Description: as §1

[39] = molecular target: TFAM, Q00059
Description: as §1

[40] = molecular target: TMEM214, Q6NUQ4
Description: as §1

[41] = molecular target: TPX2, Q9ULW0
Description: as §1

B1: RP11-644F5.11 (peptide)
chain: RPCPLLAGRTEFWPH
PRISMA enrichment of interactor (log2) [1]: 3.8 | PRISMA enrichment of interactor (log2) [2]: 4.65 | PRISMA enrichment of interactor (log2) [3]: 4.48 | PRISMA enrichment of interactor (log2) [4]: 4.24 | PRISMA enrichment of interactor (log2) [5]: 4.6 | PRISMA enrichment of interactor (log2) [6]: 4.61 | PRISMA enrichment of interactor (log2) [7]: 5.45 | PRISMA enrichment of interactor (log2) [8]: 5.43 | PRISMA enrichment of interactor (log2) [9]: 6.09 | PRISMA enrichment of interactor (log2) [10]: 5.43 | PRISMA enrichment of interactor (log2) [11]: 4 | PRISMA enrichment of interactor (log2) [12]: 6.03 | PRISMA enrichment of interactor (log2) [13]: 3.93 | PRISMA enrichment of interactor (log2) [14]: 5.85

B2: C5orf56 (peptide)
chain: PWAPHSPPQVLRMAS
PRISMA enrichment of interactor (log2) [1]: 5.65 | PRISMA enrichment of interactor (log2) [15]: 5.05 | PRISMA enrichment of interactor (log2) [16]: 4.27 | PRISMA enrichment of interactor (log2) [17]: 6.19 | PRISMA enrichment of interactor (log2) [18]: 6.72 | PRISMA enrichment of interactor (log2) [19]: 6.12 | PRISMA enrichment of interactor (log2) [20]: 11 | PRISMA enrichment of interactor (log2) [21]: 4.47 | PRISMA enrichment of interactor (log2) [22]: 5.56 | PRISMA enrichment of interactor (log2) [23]: 4.32 | PRISMA enrichment of interactor (log2) [24]: 4.05 | PRISMA enrichment of interactor (log2) [25]: 4.72 | PRISMA enrichment of interactor (log2) [26]: 5.17 | PRISMA enrichment of interactor (log2) [27]: 4.51 | PRISMA enrichment of interactor (log2) [28]: 3.92 | PRISMA enrichment of interactor (log2) [29]: 4.83 | PRISMA enrichment of interactor (log2) [30]: 4.62 | PRISMA enrichment of interactor (log2) [31]: 6.31 | PRISMA enrichment of interactor (log2) [32]: 4.24 | PRISMA enrichment of interactor (log2) [33]: 6.78 | PRISMA enrichment of interactor (log2) [34]: 4.56 | PRISMA enrichment of interactor (log2) [35]: 4.39 | PRISMA enrichment of interactor (log2) [36]: 5.22 | PRISMA enrichment of interactor (log2) [37]: 4.39 | PRISMA enrichment of interactor (log2) [38]: 4.51 | PRISMA enrichment of interactor (log2) [39]: 5.21 | PRISMA enrichment of interactor (log2) [40]: 4.34 | PRISMA enrichment of interactor (log2) [41]: 4.52
